This is one part of the list.
Legend:
Experiment in all cases: glycan array binding signal (z-score within array); higher = stronger binding
Conditions in all cases: glycan notation: IUPAC condensed, linker removed
[1] = target: Gal(b1-4)GlcNAc(b1-2)Man(a1-6)[GlcNAc(b1-2)Man(a1-3)]Man(b1-4)GlcNAc(b1-4)GlcNAc
In short: (§1)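 Glycan array data came from 3228 arrays in the Consortium for Functional Glycomics database, and only arrays with an available protein sequence were kept. Glycan names were put into IUPAC-condensed notation, and columns mapping to the same glycan were averaged. The binding signal is a within-array Z-score, averaged across arrays of one protein sequence run at different concentrations or buffers and across linkers. A negative Z-score can be read as non-binding.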

[2] = target: Gal(b1-4)GlcNAc(b1-2)Man(a1-6)[Man(a1-3)]Man(b1-4)GlcNAc(b1-4)GlcNAc
In short: as §1

[3] = target: Gal(b1-4)GlcNAc(b1-2)[Gal(b1-4)GlcNAc(b1-4)]Man(a1-3)[Gal(b1-4)GlcNAc(b1-2)Man(a1-6)]Man(b1-4)GlcNAc(b1-4)GlcNAc
In short: as §1

[4] = target: Gal(b1-4)GlcNAc(b1-2)[Gal(b1-4)GlcNAc(b1-4)]Man(a1-3)[Gal(b1-4)GlcNAc(b1-2)[Gal(b1-4)GlcNAc(b1-6)]Man(a1-6)]Man(b1-4)GlcNAc(b1-4)GlcNAc
In short: as §1

[5] = target: Gal(b1-4)GlcNAc(b1-2)[Gal(b1-4)GlcNAc(b1-4)]Man(a1-3)[GlcNAc(b1-4)][Gal(b1-4)GlcNAc(b1-2)Man(a1-6)]Man(b1-4)GlcNAc(b1-4)GlcNAc
In short: as §1

[6] = target: Gal(b1-4)GlcNAc(b1-2)[Gal(b1-4)GlcNAc(b1-4)]Man(a1-3)[GlcNAc(b1-4)][Gal(b1-4)GlcNAc(b1-2)[Gal(b1-4)GlcNAc(b1-6)]Man(a1-6)]Man(b1-4)GlcNAc(b1-4)GlcNAc
In short: as §1

[7] = target: Gal(b1-4)GlcNAc(b1-2)[Gal(b1-4)GlcNAc(b1-6)]Man(a1-6)[Gal(b1-4)GlcNAc(b1-2)Man(a1-3)]Man(b1-4)GlcNAc(b1-4)GlcNAc
In short: as §1

[8] = target: Gal(b1-4)GlcNAc(b1-2)[Gal(b1-4)GlcNAc(b1-6)]Man(a1-6)[Gal(b1-4)GlcNAc(b1-2)Man(a1-3)]Man(b1-4)GlcNAc(b1-4)[Fuc(a1-6)]GlcNAc
In short: as §1

[9] = target: Gal(b1-4)GlcNAc(b1-2)[Gal(b1-4)GlcNAc(b1-6)]Man(a1-6)[GlcNAc(b1-4)][Gal(b1-4)GlcNAc(b1-2)Man(a1-3)]Man(b1-4)GlcNAc(b1-4)GlcNAc
In short: as §1

[10] = target: Gal(b1-4)GlcNAc(b1-2)[Gal(b1-4)GlcNAc(b1-6)]Man(a1-6)[GlcNAc(b1-4)][Gal(b1-4)GlcNAc(b1-2)[Gal(b1-4)GlcNAc(b1-4)]Man(a1-3)]Man(b1-4)GlcNAc(b1-4)[Fuc(a1-6)]GlcNAc
In short: as §1

[11] = target: Gal(b1-4)GlcNAc(b1-3)Gal(b1-3)GalNAc
In short: as §1

[12] = target: Gal(b1-4)GlcNAc(b1-3)Gal(b1-3)GlcNAc
In short: as §1

[13] = target: Gal(b1-4)GlcNAc(b1-3)Gal(b1-4)Glc
In short: as §1

[14] = target: Gal(b1-4)GlcNAc(b1-3)Gal(b1-4)GlcNAc
In short: as §1

[15] = target: Gal(b1-4)GlcNAc(b1-3)Gal(b1-4)GlcNAc(b1-2)Man(a1-3)[Gal(b1-4)GlcNAc(b1-3)Gal(b1-4)GlcNAc(b1-2)Man(a1-6)]Man(b1-4)GlcNAc(b1-4)GlcNAc
In short: as §1

[16] = target: Gal(b1-4)GlcNAc(b1-3)Gal(b1-4)GlcNAc(b1-2)Man(a1-3)[Gal(b1-4)GlcNAc(b1-3)Gal(b1-4)GlcNAc(b1-2)Man(a1-6)]Man(b1-4)GlcNAc(b1-4)[Fuc(a1-6)]GlcNAc
In short: as §1

[17] = target: Gal(b1-4)GlcNAc(b1-3)Gal(b1-4)GlcNAc(b1-2)[Gal(b1-4)GlcNAc(b1-3)Gal(b1-4)GlcNAc(b1-6)]Man(a1-6)[Gal(b1-4)GlcNAc(b1-3)Gal(b1-4)GlcNAc(b1-2)Man(a1-3)]Man(b1-4)GlcNAc(b1-4)GlcNAc
In short: as §1

[18] = target: Gal(b1-4)GlcNAc(b1-3)Gal(b1-4)GlcNAc(b1-2)[Gal(b1-4)GlcNAc(b1-3)Gal(b1-4)GlcNAc(b1-6)]Man(a1-6)[Gal(b1-4)GlcNAc(b1-3)Gal(b1-4)GlcNAc(b1-2)Man(a1-3)]Man(b1-4)GlcNAc(b1-4)[Fuc(a1-6)]GlcNAc
In short: as §1

[19] = target: Gal(b1-4)GlcNAc(b1-3)Gal(b1-4)GlcNAc(b1-3)Gal(b1-4)GlcNAc
In short: as §1

[20] = target: Gal(b1-4)GlcNAc(b1-3)Gal(b1-4)GlcNAc(b1-3)Gal(b1-4)GlcNAc(b1-2)Man(a1-3)[Gal(b1-4)GlcNAc(b1-3)Gal(b1-4)GlcNAc(b1-3)Gal(b1-4)GlcNAc(b1-2)Man(a1-6)]Man(b1-4)GlcNAc(b1-4)GlcNAc
In short: as §1

[21] = target: Gal(b1-4)GlcNAc(b1-3)Gal(b1-4)GlcNAc(b1-3)Gal(b1-4)GlcNAc(b1-2)Man(a1-3)[Gal(b1-4)GlcNAc(b1-3)Gal(b1-4)GlcNAc(b1-3)Gal(b1-4)GlcNAc(b1-2)Man(a1-6)]Man(b1-4)GlcNAc(b1-4)[Fuc(a1-6)]GlcNAc
In short: as §1

[22] = target: Gal(b1-4)GlcNAc(b1-3)Gal(b1-4)GlcNAc(b1-3)Gal(b1-4)GlcNAc(b1-2)[Gal(b1-4)GlcNAc(b1-3)Gal(b1-4)GlcNAc(b1-3)Gal(b1-4)GlcNAc(b1-6)]Man(a1-6)[Gal(b1-4)GlcNAc(b1-3)Gal(b1-4)GlcNAc(b1-3)Gal(b1-4)GlcNAc(b1-2)Man(a1-3)]Man(b1-4)GlcNAc(b1-4)[Fuc(a1-6)]GlcNAc
In short: as §1

[23] = target: Gal(b1-4)GlcNAc(b1-3)Gal(b1-4)GlcNAc(b1-3)Gal(b1-4)GlcNAc(b1-3)Gal(b1-4)GlcNAc(b1-2)Man(a1-3)[Gal(b1-4)GlcNAc(b1-3)Gal(b1-4)GlcNAc(b1-3)Gal(b1-4)GlcNAc(b1-3)Gal(b1-4)GlcNAc(b1-2)Man(a1-6)]Man(b1-4)GlcNAc(b1-4)GlcNAc
In short: as §1

[24] = target: Gal(b1-4)GlcNAc(b1-3)Gal(b1-4)GlcNAc(b1-3)Gal(b1-4)GlcNAc(b1-3)Gal(b1-4)GlcNAc(b1-2)Man(a1-3)[Gal(b1-4)GlcNAc(b1-3)Gal(b1-4)GlcNAc(b1-3)Gal(b1-4)GlcNAc(b1-3)Gal(b1-4)GlcNAc(b1-2)Man(a1-6)]Man(b1-4)GlcNAc(b1-4)[Fuc(a1-6)]GlcNAc
In short: as §1

[25] = target: Gal(b1-4)GlcNAc(b1-3)Gal(b1-4)GlcNAc(b1-3)Gal(b1-4)GlcNAc(b1-3)Gal(b1-4)GlcNAc(b1-2)[Gal(b1-4)GlcNAc(b1-3)Gal(b1-4)GlcNAc(b1-3)Gal(b1-4)GlcNAc(b1-3)Gal(b1-4)GlcNAc(b1-6)]Man(a1-6)[Gal(b1-4)GlcNAc(b1-3)Gal(b1-4)GlcNAc(b1-3)Gal(b1-4)GlcNAc(b1-3)Gal(b1-4)GlcNAc(b1-2)Man(a1-3)]Man(b1-4)GlcNAc(b1-4)[Fuc(a1-6)]GlcNAc
In short: as §1

[26] = target: Gal(b1-4)GlcNAc(b1-3)Gal(b1-4)GlcNAc(b1-3)Gal(b1-4)GlcNAc(b1-3)Gal(b1-4)GlcNAc(b1-3)Gal(b1-4)GlcNAc(b1-2)Man(a1-3)[Gal(b1-4)GlcNAc(b1-3)Gal(b1-4)GlcNAc(b1-3)Gal(b1-4)GlcNAc(b1-3)Gal(b1-4)GlcNAc(b1-3)Gal(b1-4)GlcNAc(b1-2)Man(a1-6)]Man(b1-4)GlcNAc(b1-4)GlcNAc
In short: as §1

[27] = target: Gal(b1-4)GlcNAc(b1-3)Gal(b1-4)GlcNAc(b1-3)Gal(b1-4)GlcNAc(b1-3)Gal(b1-4)GlcNAc(b1-3)Gal(b1-4)GlcNAc(b1-2)Man(a1-3)[Gal(b1-4)GlcNAc(b1-3)Gal(b1-4)GlcNAc(b1-3)Gal(b1-4)GlcNAc(b1-3)Gal(b1-4)GlcNAc(b1-3)Gal(b1-4)GlcNAc(b1-2)Man(a1-6)]Man(b1-4)GlcNAc(b1-4)[Fuc(a1-6)]GlcNAc
In short: as §1

[28] = target: Gal(b1-4)GlcNAc(b1-3)Gal(b1-4)GlcNAc(b1-3)Gal(b1-4)GlcNAc(b1-3)Gal(b1-4)GlcNAc(b1-3)Gal(b1-4)GlcNAc(b1-2)[Gal(b1-4)GlcNAc(b1-3)Gal(b1-4)GlcNAc(b1-3)Gal(b1-4)GlcNAc(b1-3)Gal(b1-4)GlcNAc(b1-3)Gal(b1-4)GlcNAc(b1-6)]Man(a1-6)[Gal(b1-4)GlcNAc(b1-3)Gal(b1-4)GlcNAc(b1-3)Gal(b1-4)GlcNAc(b1-3)Gal(b1-4)GlcNAc(b1-3)Gal(b1-4)GlcNAc(b1-2)Man(a1-3)]Man(b1-4)GlcNAc(b1-4)[Fuc(a1-6)]GlcNAc
In short: as §1

[29] = target: Gal(b1-4)GlcNAc(b1-3)Gal(b1-4)GlcNAc(b1-3)Gal(b1-4)GlcNAc(b1-3)Gal(b1-4)GlcNAc(b1-3)Gal(b1-4)GlcNAc(b1-3)Gal(b1-4)GlcNAc(b1-2)Man(a1-3)[Gal(b1-4)GlcNAc(b1-3)Gal(b1-4)GlcNAc(b1-3)Gal(b1-4)GlcNAc(b1-3)Gal(b1-4)GlcNAc(b1-3)Gal(b1-4)GlcNAc(b1-3)Gal(b1-4)GlcNAc(b1-2)Man(a1-6)]Man(b1-4)GlcNAc(b1-4)GlcNAc
In short: as §1

[30] = target: Gal(b1-4)GlcNAc(b1-3)Gal(b1-4)GlcNAc(b1-3)GalNAc
In short: as §1

[31] = target: Gal(b1-4)GlcNAc(b1-3)Gal(b1-4)GlcNAc(b1-3)[Gal(b1-4)GlcNAc(b1-3)Gal(b1-4)GlcNAc(b1-6)]GalNAc
In short: as §1

[32] = target: Gal(b1-4)GlcNAc(b1-3)Gal(b1-4)GlcNAc(b1-6)[Gal(b1-3)]GalNAc
In short: as §1

[33] = target: Gal(b1-4)GlcNAc(b1-3)Gal(b1-4)[Fuc(a1-3)]GlcNAc(b1-3)Gal(b1-4)[Fuc(a1-3)]GlcNAc
In short: as §1

[34] = target: Gal(b1-4)GlcNAc(b1-3)GalNAc
In short: as §1

[35] = target: Gal(b1-4)GlcNAc(b1-3)[Fuc(a1-3)GlcNAc(b1-6)]Gal(b1-4)Glc
In short: as §1

[36] = target: Gal(b1-4)GlcNAc(b1-3)[Gal(b1-4)GlcNAc(b1-6)]Gal(b1-4)GlcNAc
In short: as §1

[37] = target: Gal(b1-4)GlcNAc(b1-3)[GlcNAc(b1-6)]Gal(b1-4)GlcNAc
In short: as §1

B1: LlpA (Arthrobacter sp) (protein)
chain: MGSSHHHHHHSSGLVPRGSHMTLHPETALRPGAAATSPNSRYRLLYQTDGNLVLYGPDGPLWDSGTNGHGAGACIMQADGNLVLYGPNDEYVWDTETDNNPGSRLVIQDDGNAVIYRPDGSPLWATETCQPPGSADSHVLQSGSTLTPTHGIRSANGLYGLLYQTDGNLVFYGPDGPLWDSGTNGRGAGACIMQPDGNLVLYGPHDEYVWDTETDNNPGSRLVIQDDGNAVIYRPDGNPTWVTGTH
glycan array binding signal (z-score) [1]: 0.012 | glycan array binding signal (z-score) [2]: -0.103 | glycan array binding signal (z-score) [3]: 0.278 | glycan array binding signal (z-score) [4]: -0.351 | glycan array binding signal (z-score) [5]: -0.339 | glycan array binding signal (z-score) [6]: -0.801 | glycan array binding signal (z-score) [7]: -0.781 | glycan array binding signal (z-score) [8]: -0.209 | glycan array binding signal (z-score) [9]: -0.796 | glycan array binding signal (z-score) [10]: 0.196 | glycan array binding signal (z-score) [11]: -0.526 | glycan array binding signal (z-score) [12]: 0.865 | glycan array binding signal (z-score) [13]: -0.027 | glycan array binding signal (z-score) [14]: -0.238 | glycan array binding signal (z-score) [15]: 0.48 | glycan array binding signal (z-score) [16]: 0.122 | glycan array binding signal (z-score) [17]: 0.46 | glycan array binding signal (z-score) [18]: 0.136 | glycan array binding signal (z-score) [19]: -0.083 | glycan array binding signal (z-score) [20]: 0.074 | glycan array binding signal (z-score) [21]: 1.38 | glycan array binding signal (z-score) [22]: 0.644 | glycan array binding signal (z-score) [23]: -0.527 | glycan array binding signal (z-score) [24]: 0.397 | glycan array binding signal (z-score) [25]: 0.965 | glycan array binding signal (z-score) [26]: 0.263 | glycan array binding signal (z-score) [27]: 0.321 | glycan array binding signal (z-score) [28]: 0.85 | glycan array binding signal (z-score) [29]: 0.466 | glycan array binding signal (z-score) [30]: 0.576 | glycan array binding signal (z-score) [31]: 0.982 | glycan array binding signal (z-score) [32]: -0.736 | glycan array binding signal (z-score) [33]: 0.34 | glycan array binding signal (z-score) [34]: -0.295 | glycan array binding signal (z-score) [35]: -0.387 | glycan array binding signal (z-score) [36]: -1.1 | glycan array binding signal (z-score) [37]: -0.412

— the supplement of paper PMC8728848
